PubChem BioAssay AID504764, Drosophila RNAi Screening Center, 2011
In all, the deposit lists about 22,000 reagents; shown is an unselected part of those with a known target gene and a result. In the full data, 403 (1.9%) were called active. 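Unnormalised raw counts per well; ratio z-scores behind the hit calls and whether each hit raises or lowers signal are not deposited.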 A number with no mark means an inactive call. Not stated in the record: the amount of reagent.

Purpose: 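Knock-downs that raise or lower a Notch target reporter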 (primary screen)
System: Drosophila Kc167 cells
Knock-down reagent: long dsRNA against Drosophila genes
Time to read-out: about 5 days (4 days dsRNA, then 24 h after transfection)
Challenge: transfection of constitutively active membrane-tethered Notch lacking the extracellular domain, read 24 h later
Measured: 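Light from a Notch-responsive E(spl)m3 luciferase reporter under active Notch, with control-promoter and no-Notch reporter wells to normalise; raw counts from paired wells a and b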
Direction: induced reporter light, run 1, well a and induced reporter light, run 1, well b: higher = more light from the Notch target reporter with active Notch; control promoter light, run 1, well a and control promoter light, run 1, well b: higher = more light from the viral control promoter (cell number, transfection, viability); uninduced reporter light, run 1, well a: higher = more light from the Notch target reporter without active Notch
Hit rule: 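Hit if the duplicate-averaged log2 ratio of induced to control-promoter light gives a plate-wise z beyond ±2, or induced to uninduced beyond ±1.8; weak-control or discordant-duplicate wells dropped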
Calls: active = modifier hit (raised or lowered Notch signal); inactive = not a hit

no.	Target gene	dsRNA	induced reporter light, run 1, well a	induced reporter light, run 1, well b	control promoter light, run 1, well a	control promoter light, run 1, well b	uninduced reporter light, run 1, well a
1	nullo	DRSC18807	1.40e5	1.25e5	2.23e5	2.10e5	10660
2	CG5614	DRSC15845	1.96e5	2.29e5	2.03e5	1.98e5	14510
3	Klf15	DRSC17742	1.51e5	1.35e5	3.02e5	2.53e5	12345
4	CG13427	DRSC06389	87555	70665	1.16e5	1.15e5	8225
5	CG14817	DRSC18547	1.14e5	1.18e5	1.68e5	2.47e5	7255
6	Mi-2	DRSC11222	12790	15750	10835	10265	1380
7	Fpps	DRSC07429	1.76e5	1.49e5	1.93e5	1.69e5	13932
8	rod	DRSC17047	1.88e5	1.51e5	2.34e5	2.21e5	10920
9	Caper	DRSC02137	1.87e5	1.94e5	1.30e5	1.48e5	15465
10	CG15506	DRSC15047	1.27e5	1.26e5	1.91e5	1.47e5	13305
11	CG5357 (retired record)	DRSC04497	1.45e5	1.44e5	1.22e5	1.19e5	11010
12	CG13995	DRSC00907	1.44e5	1.10e5	1.74e5	1.89e5	10425
13	CG13995	DRSC02327	61560	66255	70815	71210	4378
14	CR32745	DRSC17442	84515	70520	77820	69330	5420
15	CG30222	DRSC04125	46685	58315	65605	60995	4880
16	CG30222	DRSC04262	60305	58035	52450	52925	3505
17	ab	DRSC03478	11700	16440	7795	6568	5750
18	CG15471	DRSC18054	59660 (active)	67370	79565	72155	5610
19	Twdlalpha	DRSC19914	83700	71635	66240	52155	7912
20	CG12934	DRSC06247	43315	31795	25320	29185	6200
21	TotA	DRSC13448	65445	49770	67000	53120	9285
22	CG15756	DRSC19721	77405	71910	1.17e5	1.18e5	5235
23	CG11836	DRSC14396	1.78e5	1.90e5	2.21e5	2.75e5	15265
24	CG9286	DRSC16467	1.27e5	73430	98550	90845	9735
25	Ekar	DRSC17161	1.45e5	1.45e5	2.64e5	2.81e5	10835
26	Mtmr6	DRSC04046	1.67e5	1.38e5	1.78e5	1.75e5	13215
27	Mtk	DRSC07475	96070	1.10e5	1.22e5	1.04e5	8405
28	hig	DRSC07628	2.32e5	1.96e5	2.17e5	2.01e5	16538
29	Samtor	DRSC04390	1.57e5	1.66e5	1.22e5	1.51e5	14255
30	eEF1beta	DRSC07419	66770 (active)	81965	2.04e5	1.88e5	6180
31	Spt5	DRSC07556	58860	62550	62415	71125	6635
32	brn	DRSC18746	1.59e5	1.67e5	2.28e5	2.26e5	10540
33	CG9568	DRSC03265	1.06e5	1.19e5	79770	1.13e5	18155
34	Tao	DRSC19573	1.51e5	1.49e5	1.10e5	72625	9475
35	Tao	DRSC19574	1.19e5	1.06e5	97415	1.09e5	12900

Records listed above marked active:
Target gene	dsRNA	induced reporter light, run 1, well a	induced reporter light, run 1, well b	control promoter light, run 1, well a	control promoter light, run 1, well b	uninduced reporter light, run 1, well a
CG15471	DRSC18054	59660 (active)	67370	79565	72155	5610
eEF1beta	DRSC07419	66770 (active)	81965	2.04e5	1.88e5	6180
